Measured values: doi:10.1101/2023.10.13.562155 (bioRxiv, 2023)
Where two headings read alike, the source gives them in different places. No constants are given. Whether binding was seen depends on the method and setting. Binding seen in cells or lysates may run through a third protein. Some binding calls cover weakened binding; strength is not graded here. For some of these results: Sequences can lack the tags named with a protein.

By UniProt entry, the sequences of proteins in these tests, tags left out. Where a name states a change or a piece, a line headed by the entry shows the natural chain unless it says otherwise. Residues count along the entry.
UniProt Q9Z0W1, 32-427: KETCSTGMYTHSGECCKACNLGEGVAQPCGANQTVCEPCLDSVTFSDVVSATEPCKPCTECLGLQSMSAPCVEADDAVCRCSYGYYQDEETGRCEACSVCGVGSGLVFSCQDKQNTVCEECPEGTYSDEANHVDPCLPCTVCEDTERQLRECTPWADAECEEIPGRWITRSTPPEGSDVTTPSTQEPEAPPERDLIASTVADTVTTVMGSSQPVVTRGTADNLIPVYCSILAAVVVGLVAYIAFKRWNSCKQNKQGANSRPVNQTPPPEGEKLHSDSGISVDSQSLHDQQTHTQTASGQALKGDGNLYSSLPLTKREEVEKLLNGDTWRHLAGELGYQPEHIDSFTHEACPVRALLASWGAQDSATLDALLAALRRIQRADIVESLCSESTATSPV
UniProt Q9Z0W1, whole entry, looked up, stated change not applied: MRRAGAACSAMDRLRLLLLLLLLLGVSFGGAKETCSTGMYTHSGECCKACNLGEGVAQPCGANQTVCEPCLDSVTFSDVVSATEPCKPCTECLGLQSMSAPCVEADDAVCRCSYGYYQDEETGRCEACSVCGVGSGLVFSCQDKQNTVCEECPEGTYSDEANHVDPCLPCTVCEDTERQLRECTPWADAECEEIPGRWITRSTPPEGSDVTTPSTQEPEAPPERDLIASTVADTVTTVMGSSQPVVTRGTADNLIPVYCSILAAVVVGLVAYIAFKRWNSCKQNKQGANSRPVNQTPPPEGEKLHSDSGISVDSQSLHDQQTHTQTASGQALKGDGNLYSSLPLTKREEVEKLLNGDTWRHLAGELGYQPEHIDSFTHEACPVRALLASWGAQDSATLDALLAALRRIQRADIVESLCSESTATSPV
UniProt Q9QUI0, whole entry: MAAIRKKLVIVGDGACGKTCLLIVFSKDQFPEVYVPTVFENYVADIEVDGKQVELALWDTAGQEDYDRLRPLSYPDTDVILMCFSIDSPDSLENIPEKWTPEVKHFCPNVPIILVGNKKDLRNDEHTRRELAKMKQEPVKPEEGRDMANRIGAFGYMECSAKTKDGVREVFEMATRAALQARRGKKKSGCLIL
UniProt P58801, whole entry: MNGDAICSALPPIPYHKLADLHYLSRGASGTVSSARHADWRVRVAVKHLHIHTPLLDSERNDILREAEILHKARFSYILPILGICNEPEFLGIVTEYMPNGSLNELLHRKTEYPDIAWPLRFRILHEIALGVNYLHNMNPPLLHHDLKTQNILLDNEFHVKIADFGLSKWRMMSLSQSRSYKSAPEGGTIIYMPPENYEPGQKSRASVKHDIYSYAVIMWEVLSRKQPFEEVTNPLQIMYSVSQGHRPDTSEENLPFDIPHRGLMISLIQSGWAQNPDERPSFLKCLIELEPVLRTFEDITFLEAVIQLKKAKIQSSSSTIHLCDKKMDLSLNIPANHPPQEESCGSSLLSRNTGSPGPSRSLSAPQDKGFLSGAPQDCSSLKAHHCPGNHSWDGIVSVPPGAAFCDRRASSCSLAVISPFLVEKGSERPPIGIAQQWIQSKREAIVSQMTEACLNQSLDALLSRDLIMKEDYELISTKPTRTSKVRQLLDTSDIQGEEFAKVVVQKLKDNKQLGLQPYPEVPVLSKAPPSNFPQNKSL

Assays:
[1] = target: T1, Flag-tagged mouse RhoGDI S34D/S96A double mutant (mouse) (UniProt Q99PT1); assay: co-IP
T1 sequence: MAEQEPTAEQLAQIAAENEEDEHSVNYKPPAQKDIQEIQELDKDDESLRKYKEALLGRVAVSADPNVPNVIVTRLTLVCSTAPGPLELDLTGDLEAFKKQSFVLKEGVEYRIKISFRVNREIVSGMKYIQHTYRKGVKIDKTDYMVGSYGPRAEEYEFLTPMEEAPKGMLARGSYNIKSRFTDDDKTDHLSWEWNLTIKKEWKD

[2] = target: T2, Flag-tagged mouse RhoGDI wild type (mouse) (UniProt Q99PT1); assay: co-IP
T2 sequence: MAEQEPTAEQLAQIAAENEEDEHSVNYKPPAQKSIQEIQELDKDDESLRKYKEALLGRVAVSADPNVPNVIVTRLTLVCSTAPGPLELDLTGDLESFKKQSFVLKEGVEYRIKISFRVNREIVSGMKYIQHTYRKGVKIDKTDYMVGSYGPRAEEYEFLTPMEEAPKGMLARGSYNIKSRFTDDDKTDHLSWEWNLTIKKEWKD

[3] = target: T3, Flag-tagged mouse RhoGDI S34D (mouse) (UniProt Q99PT1); assay: co-IP
T3 sequence: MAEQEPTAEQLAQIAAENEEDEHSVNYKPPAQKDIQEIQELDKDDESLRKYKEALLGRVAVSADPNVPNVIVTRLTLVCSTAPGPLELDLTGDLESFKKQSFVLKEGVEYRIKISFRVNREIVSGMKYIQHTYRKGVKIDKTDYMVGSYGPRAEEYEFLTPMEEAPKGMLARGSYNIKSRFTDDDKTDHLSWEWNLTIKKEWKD

[4] = target: T4, Flag-tagged mouse RhoGDI S34A (mouse) (UniProt Q99PT1); assay: co-IP
T4 sequence: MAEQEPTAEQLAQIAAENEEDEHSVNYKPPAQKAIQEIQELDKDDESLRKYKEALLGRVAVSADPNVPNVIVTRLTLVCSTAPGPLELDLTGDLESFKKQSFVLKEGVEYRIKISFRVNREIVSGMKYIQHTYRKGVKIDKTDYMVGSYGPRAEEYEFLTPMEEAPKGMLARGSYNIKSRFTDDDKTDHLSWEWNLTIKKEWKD

[5] = target: T5, Flag-tagged mouse RhoGDI S96A (mouse) (UniProt Q99PT1); assay: co-IP
T5 sequence: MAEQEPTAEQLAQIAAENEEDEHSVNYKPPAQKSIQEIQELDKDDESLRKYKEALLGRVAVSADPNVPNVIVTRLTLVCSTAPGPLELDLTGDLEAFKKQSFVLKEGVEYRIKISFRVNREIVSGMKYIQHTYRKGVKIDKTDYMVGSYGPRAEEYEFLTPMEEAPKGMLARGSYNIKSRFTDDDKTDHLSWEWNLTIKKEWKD

[6] = target: mouse p75^NTR wild type, transfected in NIH3T3 cells (mouse) (UniProt Q9Z0W1); assay: co-IP
[7] = target: mouse p75^NTR K303A (mouse) (UniProt Q9Z0W1); assay: co-IP
[8] = target: p75^NTR wild type expressed by lentivirus in p75^NTR knock-out CGNs (mouse) (UniProt Q9Z0W1); assay: proximity ligation
[9] = target: p75 neurotrophin receptor (p75^NTR), endogenous in cerebellar granule neurons (mouse (endogenous in P7 CGNs)) (UniProt Q9Z0W1); assay: co-IP
[10] = target: HA-tagged p75^NTR wild type, electroporated into p75^NTR knock-out CGNs (mouse) (UniProt Q9Z0W1); assay: co-IP
[11] = target: p75 neurotrophin receptor (p75^NTR), endogenous in cerebellar granule neurons (mouse (endogenous in P7 CGNs)) (UniProt Q9Z0W1); assay: co-IP; remark: listed apart in the source
[12] = target: mouse p75^NTR wild type, transfected in NIH3T3 cells (mouse) (UniProt Q9Z0W1); assay: co-IP; remark: listed apart in the source
[13] = target: mouse p75^NTR K282A/K285A double mutant (mouse) (UniProt Q9Z0W1); assay: co-IP
[14] = target: mouse p75^NTR K303A (mouse) (UniProt Q9Z0W1); assay: co-IP; remark: listed apart in the source
[15] = target: mouse p75^NTR K303D (mouse) (UniProt Q9Z0W1); assay: co-IP

## HA-RhoA (from UniProt Q9QUI0 1-193)
[1]
  binding: binds
[2]
  binding: binds
[3]
  binding: binds
[4]
  binding: binds
[5]
  binding: binds

## mouse Myc-RIP2 (from UniProt P58801 1-539)
[6]
  binding: binds
[7]
  binding: binds

B1: Rho GDP-dissociation inhibitor (RhoGDI), endogenous in cerebellar granule neurons (protein, UniProt Q99PT1 1-204)
chain: MAEQEPTAEQLAQIAAENEEDEHSVNYKPPAQKSIQEIQELDKDDESLRKYKEALLGRVAVSADPNVPNVIVTRLTLVCSTAPGPLELDLTGDLESFKKQSFVLKEGVEYRIKISFRVNREIVSGMKYIQHTYRKGVKIDKTDYMVGSYGPRAEEYEFLTPMEEAPKGMLARGSYNIKSRFTDDDKTDHLSWEWNLTIKKEWKD
[8]
  binding: binds
[9]
  binding: binds
[10]
  binding: binds
[11]
  binding: binds

B2: RhoGDI-59: the 59 N-terminal residues of RhoGDI fused to GST, Flag-tagged (domain or fragment, UniProt Q99PT1 1-59)
chain: MAEQEPTAEQLAQIAAENEEDEHSVNYKPPAQKSIQEIQELDKDDESLRKYKEALLGRV
[12]
  binding: binds
[13]
  binding: binds
[14]
  binding: no binding

B3: RhoGDI-59 S34D (GST fusion, Flag-tagged) (domain or fragment, UniProt Q99PT1 1-59)
chain: MAEQEPTAEQLAQIAAENEEDEHSVNYKPPAQKDIQEIQELDKDDESLRKYKEALLGRV
[12]
  binding: binds

B4: Flag-tagged RhoGDI construct lacking the NTD (RhoGDI-Δ59) (domain or fragment, UniProt Q99PT1 60-204)
chain: AVSADPNVPNVIVTRLTLVCSTAPGPLELDLTGDLESFKKQSFVLKEGVEYRIKISFRVNREIVSGMKYIQHTYRKGVKIDKTDYMVGSYGPRAEEYEFLTPMEEAPKGMLARGSYNIKSRFTDDDKTDHLSWEWNLTIKKEWKD
[12]
  binding: binds
[13]
  binding: binds
[14]
  binding: binds

B5: mouse RhoGDI S34K (protein, UniProt Q99PT1 1-204)
chain: MAEQEPTAEQLAQIAAENEEDEHSVNYKPPAQKKIQEIQELDKDDESLRKYKEALLGRVAVSADPNVPNVIVTRLTLVCSTAPGPLELDLTGDLESFKKQSFVLKEGVEYRIKISFRVNREIVSGMKYIQHTYRKGVKIDKTDYMVGSYGPRAEEYEFLTPMEEAPKGMLARGSYNIKSRFTDDDKTDHLSWEWNLTIKKEWKD
[15]
  binding: binds
[12]
  binding: no binding
[14]
  binding: no binding

## CPAQKSIQEI (phosphoserine (pS; Ser34 of RhoGDI)) [phospho-Ser^34 RhoGDI peptide (Cys-PAQKpSIQEI)]
[9]
  binding: binds

B6: Flag-tagged mouse RhoGDI S34D (protein, UniProt Q99PT1 1-204)
chain: MAEQEPTAEQLAQIAAENEEDEHSVNYKPPAQKDIQEIQELDKDDESLRKYKEALLGRVAVSADPNVPNVIVTRLTLVCSTAPGPLELDLTGDLESFKKQSFVLKEGVEYRIKISFRVNREIVSGMKYIQHTYRKGVKIDKTDYMVGSYGPRAEEYEFLTPMEEAPKGMLARGSYNIKSRFTDDDKTDHLSWEWNLTIKKEWKD
[15]
  binding: no binding
[12]
  binding: binds

B7: Flag-tagged mouse RhoGDI S34A (protein, UniProt Q99PT1 1-204)
chain: MAEQEPTAEQLAQIAAENEEDEHSVNYKPPAQKAIQEIQELDKDDESLRKYKEALLGRVAVSADPNVPNVIVTRLTLVCSTAPGPLELDLTGDLESFKKQSFVLKEGVEYRIKISFRVNREIVSGMKYIQHTYRKGVKIDKTDYMVGSYGPRAEEYEFLTPMEEAPKGMLARGSYNIKSRFTDDDKTDHLSWEWNLTIKKEWKD
[12]
  binding: binds weakly

B8: Flag-tagged mouse RhoGDI S96D (protein, UniProt Q99PT1 1-204)
chain: MAEQEPTAEQLAQIAAENEEDEHSVNYKPPAQKSIQEIQELDKDDESLRKYKEALLGRVAVSADPNVPNVIVTRLTLVCSTAPGPLELDLTGDLEDFKKQSFVLKEGVEYRIKISFRVNREIVSGMKYIQHTYRKGVKIDKTDYMVGSYGPRAEEYEFLTPMEEAPKGMLARGSYNIKSRFTDDDKTDHLSWEWNLTIKKEWKD
[12]
  binding: binds

B9: Flag-tagged mouse RhoGDI S96A (protein, UniProt Q99PT1 1-204)
chain: MAEQEPTAEQLAQIAAENEEDEHSVNYKPPAQKSIQEIQELDKDDESLRKYKEALLGRVAVSADPNVPNVIVTRLTLVCSTAPGPLELDLTGDLEAFKKQSFVLKEGVEYRIKISFRVNREIVSGMKYIQHTYRKGVKIDKTDYMVGSYGPRAEEYEFLTPMEEAPKGMLARGSYNIKSRFTDDDKTDHLSWEWNLTIKKEWKD
[12]
  binding: binds

B10: RhoGDI-59 S34A (GST fusion, Flag-tagged) (domain or fragment, UniProt Q99PT1 1-59)
chain: MAEQEPTAEQLAQIAAENEEDEHSVNYKPPAQKAIQEIQELDKDDESLRKYKEALLGRV
[12]
  binding: no binding
